Reference: publication PMC9238395, “Identification and Tetramer Structure of Hemin-Binding Protein SPD_0310 Linked to Iron Homeostasis and Virulence of Streptococcus pneumoniae” (mSystems, 2022)

The chains behind the UniProt entries cited, without tags or fusion partners. Where a name states a change or a piece, a line headed by the entry shows the natural chain unless it says otherwise.
UniProt A0A0H2ZPT1: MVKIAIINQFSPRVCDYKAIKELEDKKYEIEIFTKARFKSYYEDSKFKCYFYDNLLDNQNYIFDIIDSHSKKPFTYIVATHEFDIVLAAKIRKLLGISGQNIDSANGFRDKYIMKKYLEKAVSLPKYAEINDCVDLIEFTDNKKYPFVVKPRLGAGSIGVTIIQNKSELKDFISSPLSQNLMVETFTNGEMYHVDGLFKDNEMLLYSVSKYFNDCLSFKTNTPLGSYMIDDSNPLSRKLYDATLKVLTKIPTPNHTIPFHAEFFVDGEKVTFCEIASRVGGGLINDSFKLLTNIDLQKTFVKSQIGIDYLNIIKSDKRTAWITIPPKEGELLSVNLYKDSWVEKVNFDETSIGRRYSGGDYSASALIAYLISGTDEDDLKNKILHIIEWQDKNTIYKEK
UniProt A0A0H2ZLV6: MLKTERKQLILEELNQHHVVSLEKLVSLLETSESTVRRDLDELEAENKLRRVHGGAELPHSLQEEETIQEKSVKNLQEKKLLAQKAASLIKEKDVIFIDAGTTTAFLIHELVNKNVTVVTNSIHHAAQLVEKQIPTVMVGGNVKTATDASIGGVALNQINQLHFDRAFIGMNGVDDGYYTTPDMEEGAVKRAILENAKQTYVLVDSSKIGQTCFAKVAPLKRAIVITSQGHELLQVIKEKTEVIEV
UniProt A0A0H2ZQ72: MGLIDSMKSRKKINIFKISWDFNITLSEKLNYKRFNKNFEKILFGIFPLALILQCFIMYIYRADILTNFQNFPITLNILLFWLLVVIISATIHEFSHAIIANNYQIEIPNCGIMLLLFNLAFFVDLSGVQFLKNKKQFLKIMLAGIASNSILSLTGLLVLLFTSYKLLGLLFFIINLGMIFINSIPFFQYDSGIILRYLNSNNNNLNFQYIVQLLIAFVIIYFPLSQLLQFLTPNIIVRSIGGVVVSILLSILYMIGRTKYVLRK
UniProt A0A0H2ZQK8: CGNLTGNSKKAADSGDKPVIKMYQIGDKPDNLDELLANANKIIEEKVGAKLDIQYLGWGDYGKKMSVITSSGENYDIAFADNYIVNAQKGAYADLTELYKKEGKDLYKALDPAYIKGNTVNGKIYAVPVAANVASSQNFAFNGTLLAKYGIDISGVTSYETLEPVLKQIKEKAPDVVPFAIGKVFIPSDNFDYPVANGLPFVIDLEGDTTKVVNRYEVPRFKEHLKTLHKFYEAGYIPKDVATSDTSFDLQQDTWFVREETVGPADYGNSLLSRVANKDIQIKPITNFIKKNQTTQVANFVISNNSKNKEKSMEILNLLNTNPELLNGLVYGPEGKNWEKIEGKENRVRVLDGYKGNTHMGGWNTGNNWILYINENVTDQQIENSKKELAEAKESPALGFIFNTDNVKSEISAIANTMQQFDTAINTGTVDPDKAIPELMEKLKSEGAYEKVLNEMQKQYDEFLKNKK
UniProt A0A0H2ZMX7: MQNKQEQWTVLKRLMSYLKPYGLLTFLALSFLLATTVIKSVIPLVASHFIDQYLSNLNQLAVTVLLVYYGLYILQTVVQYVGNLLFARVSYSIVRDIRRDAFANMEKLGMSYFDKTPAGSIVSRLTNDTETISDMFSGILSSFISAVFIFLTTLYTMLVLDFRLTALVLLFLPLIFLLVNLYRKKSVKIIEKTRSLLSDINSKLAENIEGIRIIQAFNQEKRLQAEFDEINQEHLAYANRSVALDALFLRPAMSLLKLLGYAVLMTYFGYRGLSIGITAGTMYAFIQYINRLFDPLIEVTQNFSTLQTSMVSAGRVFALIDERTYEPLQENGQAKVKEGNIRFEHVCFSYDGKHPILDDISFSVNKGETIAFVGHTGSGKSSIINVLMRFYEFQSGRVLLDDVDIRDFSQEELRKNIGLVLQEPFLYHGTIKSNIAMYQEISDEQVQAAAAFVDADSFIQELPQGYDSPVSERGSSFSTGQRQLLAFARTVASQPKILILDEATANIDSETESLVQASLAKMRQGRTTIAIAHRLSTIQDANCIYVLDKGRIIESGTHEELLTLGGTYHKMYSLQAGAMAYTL
UniProt A0A0H2ZPE9: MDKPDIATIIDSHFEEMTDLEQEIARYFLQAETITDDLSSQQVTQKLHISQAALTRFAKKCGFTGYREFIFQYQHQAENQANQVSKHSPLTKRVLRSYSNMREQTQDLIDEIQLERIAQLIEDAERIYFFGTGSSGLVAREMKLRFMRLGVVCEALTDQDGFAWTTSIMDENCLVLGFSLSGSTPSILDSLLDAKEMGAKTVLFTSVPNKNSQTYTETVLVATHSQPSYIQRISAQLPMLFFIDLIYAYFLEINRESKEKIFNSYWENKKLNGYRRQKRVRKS
UniProt A0A0H2ZL87: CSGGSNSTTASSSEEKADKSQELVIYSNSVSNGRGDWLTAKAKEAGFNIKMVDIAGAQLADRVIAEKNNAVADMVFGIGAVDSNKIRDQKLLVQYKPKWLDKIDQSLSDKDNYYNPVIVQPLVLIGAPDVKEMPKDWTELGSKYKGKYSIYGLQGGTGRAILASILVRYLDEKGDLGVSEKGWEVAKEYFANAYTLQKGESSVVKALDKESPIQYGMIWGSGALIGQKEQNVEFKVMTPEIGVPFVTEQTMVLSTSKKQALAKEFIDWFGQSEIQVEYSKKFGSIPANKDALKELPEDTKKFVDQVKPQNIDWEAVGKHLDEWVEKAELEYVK
UniProt A0A0H2ZQ93: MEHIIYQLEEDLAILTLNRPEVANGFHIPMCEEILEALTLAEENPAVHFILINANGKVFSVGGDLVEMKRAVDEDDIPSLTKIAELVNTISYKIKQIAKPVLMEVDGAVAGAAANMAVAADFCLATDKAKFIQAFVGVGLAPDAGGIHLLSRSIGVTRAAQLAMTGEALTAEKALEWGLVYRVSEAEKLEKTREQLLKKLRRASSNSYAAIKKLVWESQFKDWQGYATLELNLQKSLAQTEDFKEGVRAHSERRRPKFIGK
UniProt A0A0H2ZNT7: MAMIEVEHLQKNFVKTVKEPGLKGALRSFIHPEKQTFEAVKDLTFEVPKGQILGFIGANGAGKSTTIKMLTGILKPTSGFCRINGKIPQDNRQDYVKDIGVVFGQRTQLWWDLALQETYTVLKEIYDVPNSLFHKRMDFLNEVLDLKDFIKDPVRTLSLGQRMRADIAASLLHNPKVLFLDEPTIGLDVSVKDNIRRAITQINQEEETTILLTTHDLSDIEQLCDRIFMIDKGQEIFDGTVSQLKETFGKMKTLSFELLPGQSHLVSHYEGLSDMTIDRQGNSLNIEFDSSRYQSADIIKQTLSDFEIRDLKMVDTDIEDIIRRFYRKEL
UniProt A0A0H2ZP30: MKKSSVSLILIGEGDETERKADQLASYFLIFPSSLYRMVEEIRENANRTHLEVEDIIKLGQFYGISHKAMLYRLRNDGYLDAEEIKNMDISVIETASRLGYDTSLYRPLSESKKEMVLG
UniProt A0A0H2ZPQ6: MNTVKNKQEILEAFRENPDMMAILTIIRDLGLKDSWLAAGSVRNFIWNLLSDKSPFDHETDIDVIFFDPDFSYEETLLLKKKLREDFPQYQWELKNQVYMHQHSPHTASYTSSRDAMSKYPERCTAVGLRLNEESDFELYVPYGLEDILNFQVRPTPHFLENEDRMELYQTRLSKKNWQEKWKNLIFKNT
UniProt A0A0H2ZRM2: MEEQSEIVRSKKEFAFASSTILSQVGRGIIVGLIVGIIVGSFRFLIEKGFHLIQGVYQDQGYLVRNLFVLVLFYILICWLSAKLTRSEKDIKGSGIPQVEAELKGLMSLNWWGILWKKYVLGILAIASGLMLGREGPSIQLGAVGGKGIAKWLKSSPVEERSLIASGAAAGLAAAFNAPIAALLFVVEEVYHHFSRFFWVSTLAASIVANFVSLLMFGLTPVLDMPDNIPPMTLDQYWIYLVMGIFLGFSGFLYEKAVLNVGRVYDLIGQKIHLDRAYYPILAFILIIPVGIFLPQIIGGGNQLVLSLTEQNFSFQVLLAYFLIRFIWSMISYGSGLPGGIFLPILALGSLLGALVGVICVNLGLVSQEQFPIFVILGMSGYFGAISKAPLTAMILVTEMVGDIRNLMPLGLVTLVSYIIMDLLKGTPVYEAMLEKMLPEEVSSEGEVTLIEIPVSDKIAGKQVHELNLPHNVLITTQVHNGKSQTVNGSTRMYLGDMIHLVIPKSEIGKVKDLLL
UniProt P72525: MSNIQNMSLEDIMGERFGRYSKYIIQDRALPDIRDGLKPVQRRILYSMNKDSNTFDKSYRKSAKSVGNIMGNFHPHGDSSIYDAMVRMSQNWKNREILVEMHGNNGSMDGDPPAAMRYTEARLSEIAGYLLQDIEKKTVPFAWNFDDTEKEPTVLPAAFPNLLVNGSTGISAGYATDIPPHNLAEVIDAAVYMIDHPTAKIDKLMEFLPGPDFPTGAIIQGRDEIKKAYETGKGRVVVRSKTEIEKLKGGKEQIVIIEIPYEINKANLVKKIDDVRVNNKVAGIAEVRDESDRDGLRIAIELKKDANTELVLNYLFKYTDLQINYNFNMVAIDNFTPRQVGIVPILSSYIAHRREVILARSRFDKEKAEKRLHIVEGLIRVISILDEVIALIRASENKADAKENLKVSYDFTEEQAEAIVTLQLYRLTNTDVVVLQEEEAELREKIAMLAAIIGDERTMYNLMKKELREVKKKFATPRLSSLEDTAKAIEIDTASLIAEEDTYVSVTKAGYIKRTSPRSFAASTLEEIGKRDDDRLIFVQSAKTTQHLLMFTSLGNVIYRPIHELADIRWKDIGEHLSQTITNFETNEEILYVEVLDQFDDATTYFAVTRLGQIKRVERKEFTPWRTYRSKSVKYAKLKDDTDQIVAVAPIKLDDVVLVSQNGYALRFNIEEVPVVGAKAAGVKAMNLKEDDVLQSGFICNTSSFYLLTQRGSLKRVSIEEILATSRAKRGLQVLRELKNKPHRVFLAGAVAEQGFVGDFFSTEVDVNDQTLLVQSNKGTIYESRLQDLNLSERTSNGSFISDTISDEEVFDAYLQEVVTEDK
UniProt A0A0H2ZP24: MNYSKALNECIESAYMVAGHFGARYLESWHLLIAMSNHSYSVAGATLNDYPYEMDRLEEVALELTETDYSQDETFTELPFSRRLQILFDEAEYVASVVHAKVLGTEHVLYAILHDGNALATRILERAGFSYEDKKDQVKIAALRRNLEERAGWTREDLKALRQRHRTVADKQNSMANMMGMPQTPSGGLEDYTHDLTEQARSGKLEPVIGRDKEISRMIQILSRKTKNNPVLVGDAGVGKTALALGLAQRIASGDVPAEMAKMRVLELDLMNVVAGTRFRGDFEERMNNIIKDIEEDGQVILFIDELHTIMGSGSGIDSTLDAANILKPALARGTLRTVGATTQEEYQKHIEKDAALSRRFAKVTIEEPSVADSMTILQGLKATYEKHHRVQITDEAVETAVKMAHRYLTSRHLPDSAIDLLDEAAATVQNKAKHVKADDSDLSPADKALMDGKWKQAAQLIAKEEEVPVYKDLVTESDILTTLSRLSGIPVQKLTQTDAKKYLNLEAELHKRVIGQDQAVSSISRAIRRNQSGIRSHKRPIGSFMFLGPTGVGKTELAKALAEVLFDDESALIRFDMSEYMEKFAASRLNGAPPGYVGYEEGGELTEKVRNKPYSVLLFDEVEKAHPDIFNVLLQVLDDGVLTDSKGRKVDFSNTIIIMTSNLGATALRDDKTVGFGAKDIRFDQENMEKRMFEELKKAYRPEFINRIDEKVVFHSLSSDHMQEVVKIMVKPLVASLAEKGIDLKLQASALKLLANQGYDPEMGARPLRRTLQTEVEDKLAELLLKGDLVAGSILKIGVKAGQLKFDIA
UniProt Q9ZIH6: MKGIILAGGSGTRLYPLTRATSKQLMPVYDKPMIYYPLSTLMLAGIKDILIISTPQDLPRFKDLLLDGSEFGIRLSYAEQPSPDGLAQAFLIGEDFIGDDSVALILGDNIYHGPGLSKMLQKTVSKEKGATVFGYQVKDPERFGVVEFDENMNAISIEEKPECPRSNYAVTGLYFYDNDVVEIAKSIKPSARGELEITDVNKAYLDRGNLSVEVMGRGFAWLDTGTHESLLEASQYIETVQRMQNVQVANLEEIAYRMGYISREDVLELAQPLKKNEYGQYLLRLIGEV
UniProt A0A0H2ZLP9: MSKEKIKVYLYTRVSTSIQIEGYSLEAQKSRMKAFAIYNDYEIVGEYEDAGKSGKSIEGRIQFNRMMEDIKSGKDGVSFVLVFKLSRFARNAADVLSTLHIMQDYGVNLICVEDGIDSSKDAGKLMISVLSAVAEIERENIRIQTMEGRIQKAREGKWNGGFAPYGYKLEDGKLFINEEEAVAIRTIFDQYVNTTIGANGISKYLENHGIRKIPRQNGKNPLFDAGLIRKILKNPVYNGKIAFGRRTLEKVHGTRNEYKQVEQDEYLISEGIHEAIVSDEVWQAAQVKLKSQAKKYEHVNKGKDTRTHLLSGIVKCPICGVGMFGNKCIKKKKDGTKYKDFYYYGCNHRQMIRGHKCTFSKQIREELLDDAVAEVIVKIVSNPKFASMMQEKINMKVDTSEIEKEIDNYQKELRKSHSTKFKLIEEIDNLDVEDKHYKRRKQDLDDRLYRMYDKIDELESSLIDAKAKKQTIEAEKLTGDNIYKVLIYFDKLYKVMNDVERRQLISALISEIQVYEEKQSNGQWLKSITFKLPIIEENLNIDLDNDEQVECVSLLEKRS

Biological target: T1, SPD_0310-GST fusion protein (S. pneumoniae D39) (UniProt Q04MC1)
T1 sequence: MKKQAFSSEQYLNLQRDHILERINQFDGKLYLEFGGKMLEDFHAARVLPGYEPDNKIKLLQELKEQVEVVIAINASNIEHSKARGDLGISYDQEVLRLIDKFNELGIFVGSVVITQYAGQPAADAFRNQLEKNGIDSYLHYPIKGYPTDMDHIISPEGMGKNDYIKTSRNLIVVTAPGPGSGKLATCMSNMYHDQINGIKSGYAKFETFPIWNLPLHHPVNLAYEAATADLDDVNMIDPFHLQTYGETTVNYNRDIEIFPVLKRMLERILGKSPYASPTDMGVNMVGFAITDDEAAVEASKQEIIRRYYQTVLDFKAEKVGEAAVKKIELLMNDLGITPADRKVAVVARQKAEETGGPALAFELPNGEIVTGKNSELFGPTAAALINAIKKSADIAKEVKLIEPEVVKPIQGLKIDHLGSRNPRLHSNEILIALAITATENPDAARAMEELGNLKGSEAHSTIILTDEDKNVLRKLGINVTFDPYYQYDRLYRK
Test: affinity purification with mass spectrometry; SPD_0310-GST (or GST as control) on GST-gel beads incubated with the whole proteins of S. pneumoniae D39 for 10 h at 4°C; washed with 1× PBS; whole lanes digested in-gel, MS; only the target purified

| Substance | binding |
| --- | --- |
| SPD_0948 (from UniProt A0A0H2ZPT1 1-399) | binds |
| GpsA | binds |
| LacR1 (from UniProt A0A0H2ZLV6 1-246) | binds |
| SPD_0603 (from UniProt A0A0H2ZQ72 1-265) | binds |
| SPD_0090 (from UniProt A0A0H2ZQK8) | binds |
| SPD_1621 (from UniProt A0A0H2ZMX7) | binds |
| SPD_1487 (from UniProt A0A0H2ZPE9 1-283) | binds |
| PrsA | binds |
| DppC | binds |
| SPD_1609 (from UniProt A0A0H2ZL87) | binds |
| SPD_0378 (from UniProt A0A0H2ZQ93 1-261) | binds |
| SPD_0554 (from UniProt A0A0H2ZNT7 1-330) | binds |
| SPD_1736 (from UniProt A0A0H2ZP30 1-119) | binds |
| SPD_0242 (from UniProt A0A0H2ZPQ6 1-190) | binds |
| PurH | binds |
| PfkA | binds |
| MalX | binds |
| SPD_1021 (from UniProt A0A0H2ZRM2 1-516) | binds |
| ParC (from UniProt P72525 1-823) | binds |
| SPD_2022 (from UniProt A0A0H2ZP24) | binds |
| RpsH | binds |
| Gap (from UniProt A0A0H2US80 1-335) | binds |
| MurB | binds |
| Cps2L (from UniProt Q9ZIH6 1-289) | binds |
| SPD_0921 (from UniProt A0A0H2ZLP9 1-559) | binds |

Results are given in words; binding and its absence hold for the method and conditions named. In cells and extracts the contact can be indirect. These calls come from enrichment with a bait or labelling near it, and not all partners need be listed. Sequences can lack the tags named with a protein.
